No constants are given. Whether binding was seen depends on the method and setting. Binding seen in cells or lysates may run through a third protein.
Biological target: EYFP-tagged Abi1 mutant lacking proline-rich domain (UniProt Q8IZP0)
Experiment: co-IP; EYFP-tagged FL Abi1 or ∆PP cotransfected into cells with Flag-Pfn-1; cell extracts immunoprecipitated with GFP antibody and blotted with GFP antibody and Flag antibody

The chains behind the UniProt entries cited, without tags or fusion partners. Where a name states a change or a piece, a line headed by the entry shows the natural chain unless it says otherwise.
UniProt Q8IZP0: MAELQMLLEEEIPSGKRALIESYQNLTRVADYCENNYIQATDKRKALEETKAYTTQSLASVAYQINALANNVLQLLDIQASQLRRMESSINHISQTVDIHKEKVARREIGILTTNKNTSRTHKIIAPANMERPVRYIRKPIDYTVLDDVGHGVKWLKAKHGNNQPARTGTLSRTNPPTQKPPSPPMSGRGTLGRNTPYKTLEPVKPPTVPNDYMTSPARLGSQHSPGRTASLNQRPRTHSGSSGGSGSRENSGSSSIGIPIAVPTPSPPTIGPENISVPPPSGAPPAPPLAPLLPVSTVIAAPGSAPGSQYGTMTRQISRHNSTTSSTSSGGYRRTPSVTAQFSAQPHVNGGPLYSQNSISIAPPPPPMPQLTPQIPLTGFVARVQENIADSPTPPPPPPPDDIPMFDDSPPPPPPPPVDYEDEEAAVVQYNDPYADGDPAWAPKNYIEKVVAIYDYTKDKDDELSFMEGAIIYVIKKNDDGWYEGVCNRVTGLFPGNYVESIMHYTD
UniProt P07737: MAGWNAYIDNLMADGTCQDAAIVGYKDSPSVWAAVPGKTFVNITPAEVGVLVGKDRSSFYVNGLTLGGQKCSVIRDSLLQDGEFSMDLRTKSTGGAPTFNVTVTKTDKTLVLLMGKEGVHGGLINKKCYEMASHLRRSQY

## Flag-Pfn-1 (profilin-1) (from UniProt P07737 1-140)
  binding: no binding

From PMC7326921
